Results deposited as PubChem BioAssay AID1259424 (University of Nebraska Medical Center, 2018)
The whole screen tested about 14,000 reagents; this is a part drawn at random. 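Higher correlation or smaller distance means closer resemblance to KSR1 loss; control wells, including KSR1 knockdowns, recur on many plates.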 Further read-outs or replicates are left out here. No sequences are given here. Not stated in the record: the time to read-out.

- Aim: 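Seek colon cancer survival genes behaving like KSR1, using a six-gene signature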 (primary screen)
- Cells: human HCT116 colon cancer cells
- Reagent: siRNA pool against human genes, 50 nM
- Measurement: 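Log2 levels of six mRNAs (branched-DNA multiplex), adjusted by two reference genes and the non-targeting median, then scored against the average KSR1 knockdown pattern as Pearson r and euclidean distance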
- Direction: mean correlation with KSR1 profile: higher = expression change more like KSR1 knockdown

With ARHGEF7 (GeneID 8874) [SID363994957], how do the results read?
mean correlation with KSR1 profile: 0.317

Which result is listed for TGDS (GeneID 23483) [SID363998736]?
mean correlation with KSR1 profile: -0.637

What did the screen give for AARSD1 (GeneID 80755) [SID364003357]?
mean correlation with KSR1 profile: 0.359

With VKORC1 (GeneID 79001) [SID364002672], how do the results read?
mean correlation with KSR1 profile: 0.404

Which result is listed for AEN (GeneID 64782) [SID364002541]?
mean correlation with KSR1 profile: -0.632

Which result is listed for BAIAP2L2 (GeneID 80115) [SID364003219]?
mean correlation with KSR1 profile: -0.381

How did the screen score FAM220A (GeneID 84792) [SID364004130]?
mean correlation with KSR1 profile: 0.45

What did the screen give for C1orf50 (GeneID 79078) [SID364002746]?
mean correlation with KSR1 profile: 0.158

For GLRA2 (GeneID 2742) [SID363993270], what does the deposit list?
mean correlation with KSR1 profile: -0.166

How did the screen score VPS35 (GeneID 55737) [SID364000876]?
mean correlation with KSR1 profile: -0.167

What is on record for KRT86 (GeneID 3892) [SID363993482]?
mean correlation with KSR1 profile: 0.0322

What is on record for KRTAP17-1 (GeneID 83902) [SID364003731]?
mean correlation with KSR1 profile: 0.71

With ZIC2 (GeneID 7546) [SID363997843], how do the results read?
mean correlation with KSR1 profile: 0.0795

What did the screen give for PRODH (GeneID 5625) [SID364000042]?
mean correlation with KSR1 profile: 0.821

With HPSE (GeneID 10855) [SID363997451], how do the results read?
mean correlation with KSR1 profile: -0.242

What is on record for NAT9 (GeneID 26151) [SID363999626]?
mean correlation with KSR1 profile: -0.43

What is on record for CRAMP1 (GeneID 57585) [SID364001853]?
mean correlation with KSR1 profile: -0.481

Laid out differently: entries from further up
gene	PubChem SID	mean correlation with KSR1 profile
VPS35 (GeneID 55737)	SID364000876	-0.167
KRT86 (GeneID 3892)	SID363993482	0.0322

More reagents:
With SP110 (GeneID 3431) [SID363995486], what was measured?
mean correlation with KSR1 profile: 0.359

For BRCA2 (GeneID 675) [SID363991396], how do the results read?
mean correlation with KSR1 profile: 0.66

With MSANTD4 (GeneID 84437) [SID364005407], what does the deposit list?
mean correlation with KSR1 profile: 0.384

With NEK6 (GeneID 10783) [SID363998819], how do the results read?
mean correlation with KSR1 profile: 0.786

What did the screen give for BPI (GeneID 671) [SID363992946]?
mean correlation with KSR1 profile: -0.429

What did the screen give for PTGER4 (GeneID 5734) [SID363992242]?
mean correlation with KSR1 profile: 0.534

For SESN1 (GeneID 27244) [SID363998867], how do the results read?
mean correlation with KSR1 profile: 0.243

With C8orf33 (GeneID 65265) [SID364002639], what does the deposit list?
mean correlation with KSR1 profile: 0.316

For ZNF451 (GeneID 26036) [SID363999569], what does the deposit list?
mean correlation with KSR1 profile: 0.28

How did the screen score GTF3C1 (GeneID 2975) [SID363992778]?
mean correlation with KSR1 profile: 0.161

For CCNK (GeneID 8812) [SID363994919], how do the results read?
mean correlation with KSR1 profile: -0.572
